Three molecules from US20160369115A1, “POLARIZING PLATE COMPOSITION, POLARIZING PLATE PROTECTIVE FILM, POLARIZER, POLARIZING PLATE, LIQUID CRYSTAL DISPLAY DEVICE, AND COMPOUND USED IN THE LIQUID CRYSTAL DISPLAY DEVICE” (FUJIFILM Corporation, priority 2014, published 2016) can be followed below.

Data set [1] is described as follows: Bleed-out properties in polarizer (haze evaluation). As to conditions: haze of polarizing plate; additive in polarizer, added amount 1.0 per 100 parts by mass of polyvinyl alcohol resin.
Data set [2] can be described thus: Evaluation of durability of polarizing plate, additive in polarizer (Example 2). The conditions noted are these: added amount 1.0 per 100 parts by mass of polyvinyl alcohol resin, 410 nm.
A short description of data set [3]: Bleed-out properties in adhesive layer (haze evaluation). The conditions noted are these: additive in adhesive layer, added amount 10.0 per 100 parts by mass of the polyvinyl alcohol resin, film thickness 5 μm.
The nature of data set [4]: Evaluation of durability of polarizing plate, additive in adhesive layer (Example 3). As to conditions: added amount 10.0 per 100 parts by mass of the polyvinyl alcohol resin, film thickness 5 μm; for Durability of polarizer: amount of change of orthogonal transmittance (%) 60° C., 95%, 500 hours / Durability of polarizer: amount of change of orthogonal transmittance (%) 60° C., 95%, 1,000 hours / Durability of polarizer: amount of change of orthogonal transmittance (%) 80° C., Dry 500 hours / Durability of polarizer: amount of change of orthogonal transmittance (%) 80° C., Dry, 1,000 hours: 410 nm.

SMILES strings stand for the structures.

As to `COC(=O)Oc1[nH]c(=O)n(Cc2ccc(F)c(F)c2)c(=O)c1Cc1ccc(S(=O)(=O)[O-])cc1S(=O)(=O)[O-].[Na+].[Na+]` [Example compound AAS], in data set [1], the Bleed out entry is given as “A (The haze was less than 0.3%.)”. Besides, in data set [2], the “Durability of polarizer: amount of change of degree of polarization (%) 60° C., 95%, 500 hours” value was “A (The amount of change of the orthogonal transmittance before and after the elapse of time was equal to or greater than 0.05% and less than 2.0%.)”; the “Durability of polarizer: amount of change of degree of polarization (%) 60° C., 95%, 1,000 hours” value is “A (The amount of change of the degree of polarization before and after the elapse of time was equal to or greater than 1.0% and less than 4.0%.)”; the “Durability of polarizer: amount of change of degree of polarization (%) 80° C., Dry, 500 hours” value is “A (The amount of change of the degree of polarization before and after the elapse of time was equal to or greater than 0.05% and less than 1.0%.)”; the “Durability of polarizer: amount of change of degree of polarization (%) 80° C., Dry, 1,000 hours” value is “A (The amount of change of the degree of polarization before and after the elapse of time was equal to or greater than 0.1% and less than 2.0%.)”. In data set [2], the “Durability of polarizer: amount of change of orthogonal transmittance (%) 60° C., 95%, 500 hours” value is “A+ (The amount of change of the orthogonal transmittance before and after the elapse of time was less than 0.1%.)”; the “Durability of polarizer: amount of change of orthogonal transmittance (%) 60° C., 95%, 1,000 hours” value was “A (The amount of change of the orthogonal transmittance before and after the elapse of time was equal to or greater than 0.5% and less than 1.0%.)”; the “Durability of polarizer: amount of change of orthogonal transmittance (%) 80° C., Dry 500 hours” value is “A (The amount of change of the orthogonal transmittance before and after the elapse of time was equal to or greater than 0.05% and less than 0.1%.)”; the “Durability of polarizer: amount of change of orthogonal transmittance (%) 80° C., Dry, 1,000 hours” value was “A (The amount of change of the orthogonal transmittance before and after the elapse of time was equal to or greater than 0.1% and less than 0.3%.)”. For the same molecule, in data set [3], the Bleed out entry is given as “A (The haze was less than 0.3%.)”. Moreover, in data set [4], the “Durability of polarizer: amount of change of degree of polarization (%) 60° C., 95%, 500 hours” value was “A (The amount of change of the degree of polarization before and after the elapse of time was equal to or greater than 0.05% and less than 2.0%.)”; the “Durability of polarizer: amount of change of degree of polarization (%) 60° C., 95%, 1,000 hours” value was “A (The amount of change of the degree of polarization before and after the elapse of time was equal to or greater than 1.0% and less than 4.0%.)”; the “Durability of polarizer: amount of change of degree of polarization (%) 80° C., Dry, 500 hours” value was “A (The amount of change of the degree of polarization before and alter the elapse of time was equal to or greater than 0.05% and less than 1.0%.)”; the “Durability of polarizer: amount of change of degree of polarization (%) 80° C., Dry, 1,000 hours” value was “A (The amount of change of the degree of polarization before and after the elapse of time was equal to or greater than 0.1% and less than 2.0%.)”. Further, in data set [4], the “Durability of polarizer: amount of change of orthogonal transmittance (%) 60° C., 95%, 500 hours” value is “A (The amount of change of the orthogonal transmittance before and after the elapse of time was equal to or greater than 0.1% and less than 0.4%.)”; the “Durability of polarizer: amount of change of orthogonal transmittance (%) 60° C., 95%, 1,000 hours” value is “A (The amount of change of the orthogonal transmittance before and after the elapse of time was equal to or greater than 0.5% and less than 1.0%.)”; the “Durability of polarizer: amount of change of orthogonal transmittance (%) 80° C., Dry 500 hours” value was “A (The amount of change of the orthogonal transmittance before and after the elapse of time was equal to or greater than 0.05% and less than 0.1%.)”; the “Durability of polarizer: amount of change of orthogonal transmittance (%) 80° C., Dry, 1,000 hours” value was “A (The amount of change of the orthogonal transmittance before and after the elapse of time was equal to or greater than 0.1% and less than 0.3%.)”.
As to `O=C(Oc1c(Cc2ccccc2S(=O)(=O)[O-])c(=O)n(-c2ccccc2)c(=O)n1-c1ccccc1)OC1c2ccccc2-c2ccccc21.[Na+]` [Example compound H], the Bleed out entry in data set [1] is recorded as “A (The haze was less than 0.3%.)”. For the same molecule, in data set [2], the “Durability of polarizer: amount of change of degree of polarization (%) 60° C., 95%, 500 hours” value is “A+ (The amount of change of the degree of polarization before and after the elapse of time was less than 0.05%.)”; the “Durability of polarizer: amount of change of degree of polarization (%) 60° C., 95%, 1,000 hours” value is “A+ (The amount of change of the degree of polarization before and after the elapse of time was less than 1.0%.)”; the “Durability of polarizer: amount of change of degree of polarization (%) 80° C., Dry, 500 hours” value was “A+ (The amount of change of the degree of polarization before and after the elapse of time was less than 0.05%.)”; the “Durability of polarizer: amount of change of degree of polarization (%) 80° C., Dry, 1,000 hours” value was “A+ (The amount of change of the degree of polarization before and after the elapse of time was less than 0.1%.)”. Further, in data set [2], the “Durability of polarizer: amount of change of orthogonal transmittance (%) 60° C., 95%, 500 hours” value was “A+ (The amount of change of the orthogonal transmittance before and after the elapse of time was less than 0.1%.)”; the “Durability of polarizer: amount of change of orthogonal transmittance (%) 60° C., 95%, 1,000 hours” value is “A+ (The amount of change of the orthogonal transmittance before and after the elapse of time was less than 0.5%.)”; the “Durability of polarizer: amount of change of orthogonal transmittance (%) 80° C., Dry 500 hours” value is “A+ (The amount of change of the orthogonal transmittance before and after the elapse of time was less than 0.05%.)”; the “Durability of polarizer: amount of change of orthogonal transmittance (%) 80° C., Dry, 1,000 hours” value is “A+ (The amount of change of the orthogonal transmittance before and after the elapse of time was less than 0.1%.)”. In addition, the Bleed out result in data set [3] is given as “A (The haze was less than 0.3%.)”. Also, in data set [4], the “Durability of polarizer: amount of change of degree of polarization (%) 60° C., 95%, 500 hours” value is “A+ (The amount of change of the degree of polarization before and after the elapse of time was less than 0.05%.)”; the “Durability of polarizer: amount of change of degree of polarization (%) 60° C., 95%, 1,000 hours” value was “A+ (The amount of change of the degree of polarization before and after the elapse of time was less than 1.0%.)”; the “Durability of polarizer: amount of change of degree of polarization (%) 80° C., Dry, 500 hours” value is “A+ (The amount of change of the degree of polarization before and after the elapse of time was less than 0.05%.)”; the “Durability of polarizer: amount of change of degree of polarization (%) 80° C., Dry, 1,000 hours” value is “A+ (The amount of change of the degree of polarization before and after the elapse of time was less than 0.1%.)”. Moreover, in data set [4], the “Durability of polarizer: amount of change of orthogonal transmittance (%) 60° C., 95%, 500 hours” value is “A+ (The amount of change of the orthogonal transmittance before and after the elapse of time was less than 0.1%.)”; the “Durability of polarizer: amount of change of orthogonal transmittance (%) 60° C., 95%, 1,000 hours” value was “A+ (The amount of change of the orthogonal transmittance before and after the elapse of time was less than 0.5%.)”; the “Durability of polarizer: amount of change of orthogonal transmittance (%) 80° C., Dry 500 hours” value is “A+ (The amount of change of the orthogonal transmittance before and after the elapse of time was less than 0.05%.)”; the “Durability of polarizer: amount of change of orthogonal transmittance (%) 80° C., Dry, 1,000 hours” value was “A+ (The amount of change of the orthogonal transmittance before and after the elapse of time was less than 0.1%.)”.
On to `O=C([O-])c1ccc(Cc2c(OCOCc3ccccc3)n(-c3ccccc3)c(=O)n(-c3ccccc3)c2=O)cc1.[Na+]` [Example compound O], for which the Bleed out result in data set [1] is reported as “A (The haze was less than 0.3%.)”. For the same molecule, in data set [2], the “Durability of polarizer: amount of change of degree of polarization (%) 60° C., 95%, 500 hours” value was “A+ (The amount of change of the degree of polarization before and after the elapse of time was less than 0.05%.)”; the “Durability of polarizer: amount of change of degree of polarization (%) 60° C., 95%, 1,000 hours” value was “A+ (The amount of change of the degree of polarization before and after the elapse of time was less than 1.0%.)”; the “Durability of polarizer: amount of change of degree of polarization (%) 80° C., Dry, 500 hours” value is “A+ (The amount of change of the degree of polarization before and after the elapse of time was less than 0.05%.)”; the “Durability of polarizer: amount of change of degree of polarization (%) 80° C., Dry, 1,000 hours” value was “A+ (The amount of change of the degree of polarization before and after the elapse of time was less than 0.1%.)”. Further, in data set [2], the “Durability of polarizer: amount of change of orthogonal transmittance (%) 60° C., 95%, 500 hours” value was “A+ (The amount of change of the orthogonal transmittance before and after the elapse of time was less than 0.1%.)”; the “Durability of polarizer: amount of change of orthogonal transmittance (%) 60° C., 95%, 1,000 hours” value was “A+ (The amount of change of the orthogonal transmittance before and after the elapse of time was less than 0.5%.)”; the “Durability of polarizer: amount of change of orthogonal transmittance (%) 80° C., Dry 500 hours” value is “A+ (The amount of change of the orthogonal transmittance before and after the elapse of time was less than 0.05%.)”; the “Durability of polarizer: amount of change of orthogonal transmittance (%) 80° C., Dry, 1,000 hours” value is “A+ (The amount of change of the orthogonal transmittance before and after the elapse of time was less than 0.1%.)”. Further, in data set [3], the Bleed out result is recorded as “A (The haze was less than 0.3%.)”. In data set [4], the “Durability of polarizer: amount of change of degree of polarization (%) 60° C., 95%, 500 hours” value is “A+ (The amount of change of the degree of polarization before and after the elapse of time was less than 0.05%.)”; the “Durability of polarizer: amount of change of degree of polarization (%) 60° C., 95%, 1,000 hours” value was “A+ (The amount of change of the degree of polarization before and after the elapse of time was less than 1.0%.)”; the “Durability of polarizer: amount of change of degree of polarization (%) 80° C., Dry, 500 hours” value is “A+ (The amount of change of the degree of polarization before and after the elapse of time was less than 0.05%.)”; the “Durability of polarizer: amount of change of degree of polarization (%) 80° C., Dry, 1,000 hours” value is “A+ (The amount of change of the degree of polarization before and after the elapse of time was less than 0.1%.)”. For the same molecule, in data set [4], the “Durability of polarizer: amount of change of orthogonal transmittance (%) 60° C., 95%, 500 hours” value was “A+ (The amount of change of the orthogonal transmittance before and after the elapse of time was less than 0.1%.)”; the “Durability of polarizer: amount of change of orthogonal transmittance (%) 60° C., 95%, 1,000 hours” value was “A+ (The amount of change of the orthogonal transmittance before and after the elapse of time was less than 0.5%.)”; the “Durability of polarizer: amount of change of orthogonal transmittance (%) 80° C., Dry 500 hours” value is “A+ (The amount of change of the orthogonal transmittance before and after the elapse of time was less than 0.05%.)”; the “Durability of polarizer: amount of change of orthogonal transmittance (%) 80° C., Dry, 1,000 hours” value was “A+ (The amount of change of the orthogonal transmittance before and after the elapse of time was less than 0.1%.)”.
